Assay results: PMC2736567
Results are given in words; binding and its absence hold for the method and conditions named. Binding seen in cells or lysates may run through a third protein.

Protein sequences, listed by entry. Tags and fused reporters are not part of them.
UniProt Q997F1: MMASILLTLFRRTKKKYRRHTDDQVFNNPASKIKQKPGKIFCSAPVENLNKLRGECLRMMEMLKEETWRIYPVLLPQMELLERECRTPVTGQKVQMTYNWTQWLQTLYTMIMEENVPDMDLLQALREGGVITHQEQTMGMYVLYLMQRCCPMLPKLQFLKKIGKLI
UniProt P42224: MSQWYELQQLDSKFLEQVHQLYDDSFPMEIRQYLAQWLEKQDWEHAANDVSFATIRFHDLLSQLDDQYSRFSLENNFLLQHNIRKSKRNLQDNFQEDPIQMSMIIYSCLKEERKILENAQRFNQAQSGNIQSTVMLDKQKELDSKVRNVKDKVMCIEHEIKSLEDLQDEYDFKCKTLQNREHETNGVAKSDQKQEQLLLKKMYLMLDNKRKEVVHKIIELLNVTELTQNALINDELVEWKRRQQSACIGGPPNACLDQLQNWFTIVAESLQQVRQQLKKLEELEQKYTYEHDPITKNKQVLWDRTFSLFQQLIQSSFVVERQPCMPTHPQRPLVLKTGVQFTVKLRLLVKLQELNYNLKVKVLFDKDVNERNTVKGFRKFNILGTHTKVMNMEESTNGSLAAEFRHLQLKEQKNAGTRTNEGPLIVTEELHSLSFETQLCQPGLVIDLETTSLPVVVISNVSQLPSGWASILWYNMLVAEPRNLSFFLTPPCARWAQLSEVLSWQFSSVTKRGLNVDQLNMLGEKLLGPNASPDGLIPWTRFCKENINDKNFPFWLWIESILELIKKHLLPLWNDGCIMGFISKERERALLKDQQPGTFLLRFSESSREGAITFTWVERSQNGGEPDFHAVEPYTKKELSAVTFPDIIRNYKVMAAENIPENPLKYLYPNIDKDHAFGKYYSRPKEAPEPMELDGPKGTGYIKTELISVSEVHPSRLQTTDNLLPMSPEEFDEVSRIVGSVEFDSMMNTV
UniProt P62993: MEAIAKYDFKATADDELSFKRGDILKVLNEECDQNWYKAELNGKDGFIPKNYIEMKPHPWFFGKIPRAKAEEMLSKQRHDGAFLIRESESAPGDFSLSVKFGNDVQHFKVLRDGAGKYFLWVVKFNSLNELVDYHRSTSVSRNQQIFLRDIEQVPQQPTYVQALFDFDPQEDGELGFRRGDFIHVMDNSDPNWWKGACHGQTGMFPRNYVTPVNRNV

Target: GST-tagged C protein of Nipah virus (Nipah-C) (Nipah virus) (UniProt Q997F1)
Assay: pull-down

Substance: endogenous STAT1 (from UniProt P42224 1-750)
- binding: no binding

Substance: endogenous GRB2 (from UniProt P62993 1-217)
- binding: no binding
